The test system of this assay is nude mice, HT29 intrarenal xenograft, tumor weight T/C. Description: NCI In Vivo Anticancer Drug Screen. Data for tumor model HT29;CX-1 Human Adenocarcinoma (MER+) (intrarenal inoculation) in NU/NU Swiss (nude) mice. Conditions: T/C endpoint: mean tumor weight change, higher T/C = larger tumour. The method, boiled down: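 Tumor-bearing mice received test compound or vehicle, and tumor size or survival was recorded. Values are the treated-group measurement divided by the vehicle-treated control measurement.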

Where [1] appears, read: dose: 100.0 mg/kg/injection, schedule: Q01DX010 (sc), vehicle: water.
Where [2] appears, read: dose: 200.0 mg/kg/injection, schedule: Q01DX010 (sc), vehicle: water.
Where [3] appears, read: dose: 200.0 mg/kg/injection, schedule: Q01DX010 (sc), vehicle: saline.

The list is a part of this screen's results and no random one: it gathers tests that were run many times, whatever their T/C, doses with no T/C, and many T/C values between a quarter and a half above the control. Other doses and runs of a compound stand elsewhere. T/C: endpoint of the treated group in % of that of the vehicle group. Schedule codes are those of the source, read here as Q, the interval in days (D) or hours (H), X, the number of doses. Some T/C values are followed by the survivors on the day toxicity was checked, most often the fifth; without a count, all were alive then. Some entries give survivors of the animals treated and no T/C: the source files T/C as zero there, which appears to mark a toxic dose or a test without result, not a measured value. Survivors were counted at the toxicity check, usually on the fifth day, unless a day is given; later deaths do not show. Some entries hold several experiments; the values are given in rising order.

Take `N#C[Se-].c1ccc([Te+](c2ccccc2)c2ccccc2)cc1`: the survivor count (dose: 50.0 mg/kg/injection, schedule: Q04DX004 (sc), vehicle: Klucel (hydroxypropylcellulose) (HPC)) was 0 of 6 on day 15 and the survivor count (dose: 100.0 mg/kg/injection, schedule: Q04DX004 (sc), vehicle: Klucel (hydroxypropylcellulose) (HPC)) is on record as 0 of 6 on day 15.
With `O=[N+]([O-])/C=C\c1ccc2c(c1)OCO2`, under “dose: 200.0 mg/kg/injection, schedule: Q01DX010 (sc), vehicle: Klucel (hydroxypropylcellulose) (HPC), evaluated on day 11”, the T/C was 134 % of control.
As for `CC(C)CC(=O)NC(C(=O)NC(C(=O)NC(CC(C)C)C(O)CC(=O)NC(C)C(=O)NC(CC(C)C)C(O)CC(=O)O)C(C)C)C(C)C` (stereo not given), for the setting “dose: 75.0 mg/kg/injection, schedule: Q04DX004 (sc), vehicle: Klucel (hydroxypropylcellulose) (HPC), evaluated on day 15”, the T/C was 128 % of control.
For `CC(=O)c1c(O)c(C)c(O)c2c1OC1=CC(=O)C(C(C)=O)C(=O)C12C` (stereo not given), the T/C (dose: 300.0 mg/kg/injection, schedule: Q04DX004 (sc), vehicle: sodium bicarbonate, evaluated on day 15) was 142 % of control. Also, the survivor count reads like this: (dose: 600.0 mg/kg/injection, schedule: Q04DX004 (sc), vehicle: sodium bicarbonate) 1 of 6 on day 15; (dose: 800.0 mg/kg/injection, schedule: Q01DX010 (sc), vehicle: sodium bicarbonate) 1 of 3 on day 11; (dose: 1200.0 mg/kg/injection, schedule: Q04DX004 (sc), vehicle: sodium bicarbonate) 1 of 6 on day 15 and 3 of 6 on day 15; (dose: 2400.0 mg/kg/injection, schedule: Q04DX004 (sc), vehicle: sodium bicarbonate) 0 of 6 on day 15 and 1 of 6 on day 15.
Turning to `O=C1C(=O)c2ccccc2C(O)=C1CC=C(Cl)Cl`, the T/C is, setting by setting: (dose: 50.0 mg/kg/injection, schedule: Q01DX010 (sc), vehicle: water, evaluated on day 11) 139 % of control; (dose: 100.0 mg/kg/injection, schedule: Q01DX010 (sc), vehicle: water, evaluated on day 11) 128 % of control [2 of 2 alive on day 11]. For the setting “dose: 800.0 mg/kg/injection, schedule: Q01DX010 (sc), vehicle: water”, the survivor count is 0 of 3 on day 11.
Consider `N#CC(=C1C=CC(=NO)C=C1)c1ccc(Cl)cc1`, for which, where the note is “dose: 200.0 mg/kg/injection, schedule: Q04DX004 (sc), vehicle: saline with Tween-80, evaluated on day 15”, the T/C is 125 % of control.
In the case of `CC(=O)OCC1OC(n2cc(CBr)nn2)C(OC(C)=O)C(OC(C)=O)C1OC(C)=O` (stereo not given), the T/C (dose: 100.0 mg/kg/injection, schedule: Q01DX010 (sc), vehicle: saline with Tween-80, evaluated on day 11) was 135 % of control.
Take `Cc1cc(Nc2ccc3c(c2)OCO3)c2cc3c(cc2n1)OCO3`: the survivor count runs as follows: (dose: 1200.0 mg/kg/injection, schedule: Q04DX004 (sc), vehicle: Klucel (hydroxypropylcellulose) (HPC)) 2 of 6 on day 15; (dose: 2400.0 mg/kg/injection, schedule: Q04DX004 (sc), vehicle: Klucel (hydroxypropylcellulose) (HPC)) 3 of 6 on day 15.
For the compound `COc1ccc(C[C@H](N)C(=O)NC2C(CO)OC(n3cnc4c(N(C)C)ncnc43)C2O)cc1` (stereo not given in full), the survivor count (dose: 800.0 mg/kg/injection, schedule: Q04DX004 (sc), vehicle: saline) is 0 of 6 on day 15.
With `O=C1N(Cl)C(=O)C(c2ccc(Cl)cc2)(c2ccc(Cl)cc2)N1Cl`, the survivor count was 1 of 3 on day 11 (dose: 400.0 mg/kg/injection, schedule: Q01DX010 (sc), vehicle: saline with Tween-80) and 0 of 3 on day 11 (dose: 800.0 mg/kg/injection, schedule: Q01DX010 (sc), vehicle: saline with Tween-80).
In the case of `CN1N=C(N)c2cn(C3OC(COP(=O)(O)O)C(O)C3O)c3ncnc1c23` (stereo not given), the survivor count reads like this: under setting [1], 0 of 3 on day 11; under setting [2], 0 of 3 on day 11.
On to `CN(C)c1nc(N(C)C)nc(N(C)C)n1`, for which the survivor count (dose: 240.0 mg/kg/injection, schedule: Q01DX010 (sc), vehicle: saline with Tween-80) is 0 of 3 on day 11 and 1 of 3 on day 11.
Regarding `ClCC[Se](Cl)(Cl)c1ccccc1`, the T/C (dose: 25.0 mg/kg/injection, schedule: Q04DX004 (sc), vehicle: saline, evaluated on day 11) was 143 % of control. Under “dose: 100.0 mg/kg/injection, schedule: Q04DX004 (sc), vehicle: saline”, the survivor count is 1 of 6 on day 11.
Consider `O=C(NP(=O)(N1CC1)N1CC1)c1cc(I)ccc1I`, for which the T/C reads like this: (dose: 75.0 mg/kg/injection, schedule: Q04DX004 (sc), vehicle: saline, evaluated on day 15) 132 % of control; (dose: 150.0 mg/kg/injection, schedule: Q04DX004 (sc), vehicle: saline, evaluated on day 15) 142 % of control. The survivor count is given as 3 of 6 on day 15 (dose: 300.0 mg/kg/injection, schedule: Q04DX004 (sc), vehicle: saline) and 0 of 4 on day 15 (dose: 600.0 mg/kg/injection, schedule: Q04DX004 (sc), vehicle: saline).
Turning to `NNC(=S)N/N=C/c1ccccn1`, the survivor count (dose: 120.0 mg/kg/injection, schedule: Q04DX004 (sc), vehicle: saline with Tween-80) is given as 0 of 6 on day 15.
As to `C=C(C)[C@H]1Cc2c(ccc3c2O[C@@H]2COc4cc(OC)c(OC)cc4[C@@H]2C3=O)O1`, the survivor count (dose: 16.0 mg/kg/injection, schedule: Q01DX010 (sc), vehicle: saline with Tween-80) is on record as 0 of 3 on day 11.
Turning to `CCCCOC(=O)/C=C(\Br)C(=O)OCCCC`, the survivor count (dose: 1000.0 mg/kg/injection, schedule: Q04DX004 (sc), vehicle: saline with Tween-80) is listed as 1 of 5 on day 15.
As for `O=c1n[n+]([O-])ccn1C1OC(CO)C(O)C1O` (stereo not given), the survivor count (dose: 2000.0 mg/kg/injection, schedule: Q04DX004 (sc), vehicle: suspension in saline) is recorded as 0 of 6 on day 15.
With `CC1CN1P1(N2CC2C)=NP(N2CC2C)(N2CC2C)=NP(N2CC2C)(N2CC2C)=N1` (stereo not given), the T/C (dose: 25.0 mg/kg/injection, schedule: Q01DX010 (sc), vehicle: saline, evaluated on day 11) is 146 % of control. Also, the survivor count under setting [3] is given as 0 of 3 on day 11.
`CC(=O)N(C)c1ccc(Nc2cc(C)[nH]c3ccc4ncnc4c23)cc1`: the survivor count (dose: 400.0 mg/kg/injection, schedule: Q04DX004 (sc), vehicle: saline with Tween-80) is recorded as 1 of 6 on day 15.
As for `Cc1c(CNc2ccc(C(=O)NC(CC(=O)O)C(=O)O)cc2)ccc2nc(N)nc(N)c12` (stereo not given), the survivor count by setting is: (dose: 25.0 mg/kg/injection, schedule: Q04DX004 (sc), vehicle: saline with Tween-80) 2 of 6 on day 15; (dose: 50.0 mg/kg/injection, schedule: Q04DX004 (sc), vehicle: saline with Tween-80) 0 of 6 on day 15; (dose: 100.0 mg/kg/injection, schedule: Q04DX004 (sc), vehicle: saline with Tween-80) 0 of 6 on day 15.
Consider `CNC(=O)ON(C(C)=O)C(=O)NC`, for which the survivor count was 3 of 6 on day 15 (dose: 150.0 mg/kg/injection, schedule: Q04DX004 (sc), vehicle: saline); 1 of 3 on day 11 under setting [3]; 0 of 6 on day 15 and 2 of 6 on day 15 (dose: 200.0 mg/kg/injection, schedule: Q04DX004 (sc), vehicle: saline); 0 of 6 on day 15 (dose: 250.0 mg/kg/injection, schedule: Q04DX004 (sc), vehicle: saline); 0 of 6 on day 15 (dose: 400.0 mg/kg/injection, schedule: Q04DX004 (sc), vehicle: saline).
`CNC(=O)OCc1c(COC(=O)NC)c(-c2ccccc2)n(C)c1-c1ccccc1`: the T/C (dose: 100.0 mg/kg/injection, schedule: Q04DX004 (sc), vehicle: distilled water + Tween-80, evaluated on day 15) is 149 % of control [5 of 6 alive on day 15].
As for `NC(=S)c1cn(C2OC(CO)C(O)C2O)c2ncnc(N)c12` (stereo not given), the survivor count (dose: 25.0 mg/kg/injection, schedule: Q04DX004 (sc), vehicle: suspension in saline) is listed as 1 of 6 on day 15 and the survivor count (dose: 50.0 mg/kg/injection, schedule: Q04DX004 (sc), vehicle: suspension in saline) is on record as 0 of 6 on day 15.
In the case of `Cn1cnc([N+](=O)[O-])c1[Se]c1nc(N)nc2nc[nH]c12`, the survivor count is given as 0 of 3 on day 11 under setting [1]; 0 of 3 on day 11 under setting [2]; 0 of 3 on day 11 (dose: 400.0 mg/kg/injection, schedule: Q01DX010 (sc), vehicle: water).
Regarding `Cc1ccc(NC(=O)Oc2ccc(Br)cc2Br)c([N+](=O)[O-])c1`, the T/C (dose: 150.0 mg/kg/injection, schedule: Q04DX004 (sc), vehicle: saline with Tween-80, evaluated on day 15) was 132 % of control [5 of 6 alive on day 15].

These data come from PubChem BioAssay AID206 (DTP/NCI, 2004).
